Assay results as given in US20200270359A1.
No constants are given. Whether binding was seen depends on the method and setting. Some entries that bind do so weakly or less than the wild type. Values belong to the binder of their own block, whether it stands above or below them.

Assays:
[1] = target: T1, human (Homo sapiens) CD37 (human (Homo sapiens)) (UniProt P11049); assay: flow cytometry on Daudi cells
T1 sequence: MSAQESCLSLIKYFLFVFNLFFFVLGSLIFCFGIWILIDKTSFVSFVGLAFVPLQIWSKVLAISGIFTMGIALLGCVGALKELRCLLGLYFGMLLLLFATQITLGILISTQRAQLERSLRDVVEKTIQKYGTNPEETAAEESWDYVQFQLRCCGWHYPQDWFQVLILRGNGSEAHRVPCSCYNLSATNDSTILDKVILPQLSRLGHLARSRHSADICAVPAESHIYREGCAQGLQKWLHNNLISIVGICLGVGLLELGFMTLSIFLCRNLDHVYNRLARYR

[2] = target: T1, human (Homo sapiens) CD37 (human (Homo sapiens)); assay: binding to Daudi cells (data not shown)

binding [1]: binds
B1: IgG1-005-H1L2-K409R-E430G (antibody, V domains shown)
VH: EQSVVESGGGLVQPGGSLRLSCTVSGFSLSSNAMNWVRQAPGKGLEWIGLIYASGNTDYASWAKGRFTISKTSTTVYLKITSPTAEDTATYFCAREGSVWGAAFDPWGQGTLVTVSS
VL: AYDMTQSPSSVSASVGDRVTITCQASQSISNWLAWYQQKPGKAPKQLIYAASTLASGVPSRFKGSGSGTDFTLTISSLQPEDFATYYCQQGYSNSNIDNTFGGGTKVEIKR

binding [2]: binds
B2: IgG1-G28.1-S239D-I332E (antibody, V domains shown)
VH: AVQLQQSGPELEKPGASVKISCKASGYSFTGYNMNWVKQNNGKSLEWIGNIDPYYGGTTYNRKFKGKATLTVDKSSSTAYMQLKSLTSEDSAVYYCARSVGPMDYWGQGTSVTVSS
VL: DIQMTQSPASLSASVGETVTITCRTSENVYSYLAWYQQKQGKSPQLLVSFAKTLAEGVPSRFSGSGSGTQFSLKISSLQPEDSGSYFCQHHSDNPWTFGGGTELEIKR
